Reference: PubChem BioAssay AID504467 (National Center for Advancing Translational Sciences (NCATS), 2011)
The campaign covered roughly 330,000 compounds. About 7,700 (2.3%) were called active. The inconclusive results got no clear call from the source; some entries with a clear call stand among them for comparison. Calls come from the whole dose curve; as a rule, active = well fitted inhibition curve with a large enough effect; inconclusive = small, poorly fitted or top-dose-only effect, or effect the other way; inactive = flat fitted curve, though single readings scatter. Potencies beside an inconclusive call are fits to weak or partial responses and may not hold up.

Assay: qHTS screen for small molecules that inhibit ELG1-dependent DNA repair in human embryonic kidney (HEK293T) cells expressing luciferase-tagged ELG1; note: nearly all actives have a fitted effect of over 55% in size
Details: HEK293T ELG1-luciferase reporter, luminescence, 16 h, DNA damage induced by 5-fluorouridine; activity change, negative = inhibition: at 46.1 µM (top of the series)
Procedure, shortened: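 In this reporter screen, reduction of luminescence relative to DMSO vehicle indicated activity. Compounds and 5-fluorouridine were added together to 2,000 cells per well, incubated for 16 hr at 37 °C, then developed with ONE-Glo.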
% is set by controls: 0 for no effect and ±100 for the full control effect; potency is the fitted concentration of half-maximal effect.

Structure (SMILES)	activity change, negative = inhibition	Potency
COC(=O)CCCC1=CC2=C(c3ccccc3)C(=O)C(C)(OC(=O)C3CCCC3)C(=O)C2=CN1Cc1ccco1 (stereo not drawn)	inactive: -3.71%	–
O=C(NCC1CC1)Nc1cccc(Cl)c1	–	inconclusive: 29.1 µM [activator, single point]
O=C(Nc1ccc2c(c1)OCCO2)C1CC1c1ccccc1 (stereo not drawn)	–	inconclusive: 13 µM [activator, partial curve]
COc1ccc(CN2CCC(n3nccc3NC(=O)C3CC3)CC2)cc1O	inactive: 0.993%	–
Cc1ccc(OC(=O)c2c(C)nn(-c3ccccc3)c2C)cc1	–	inconclusive: 9.2 µM [activator, partial curve, poor fit]
N#Cc1ccccc1Cn1c(=O)n(Cc2ccc(C(=O)NCc3ccco3)cc2)c(=O)c2ccccc21	–	inconclusive: 7.31 µM [activator, partial curve, poor fit]
CCCCCn1c(CCC(=O)Oc2ccccc2OC)nc2c1c(=O)[nH]c(=O)n2CCCC	–	inconclusive: 20.6 µM [inhibitor, single point]
CCOc1ccc(-c2noc(-c3cccnc3)n2)cc1OCC	inactive: 17.8%	–
COc1ccccc1NC(=O)Cn1c(C)cc(=O)c2cccc(OC)c21	–	inconclusive: 13 µM [inhibitor, partial curve]
CC1Cc2cc(/C=C3/SC(N4CCC(C(N)=O)CC4)=NC3=O)ccc2O1 (stereo not drawn)	–	active: 25.9 µM
O=C(Nc1nnc(-c2ccccc2)s1)c1cc(S(=O)(=O)N2CCOCC2)c(Cl)cc1Cl	–	inconclusive: 29.1 µM [activator, partial curve, poor fit]
CCOC(=O)C1=C(c2ccccc2)Nc2ncnn2C1c1cccc(O)c1 (stereo not drawn)	inactive: 0%	–
CN(C)c1ccnc(Oc2ccc(Cl)cc2)c1C#N	–	inconclusive: 20.6 µM [activator, partial curve]
Cc1ccc(C)c(S(=O)(=O)NCc2ccc(C(=O)N3CCN(c4ccccc4)CC3)cc2)c1	–	inconclusive: 20.6 µM [inhibitor, single point]
CCN(CC(=O)Nc1ccc(OC)cc1)CC(=O)Nc1ccc(Br)cc1F	–	inconclusive: 25.9 µM [inhibitor, single point]
O=C(Cc1ccccc1)Nc1nnc(-c2ccccc2)o1	inactive: 9.01%	–
CN(C)S(=O)(=O)c1cccc(C(=O)N(Cc2ccc(F)cc2)Cc2ccco2)c1	–	inconclusive: 11.6 µM [inhibitor, partial curve]
CN(C)c1ccc(P(=O)(COc2ccc([N+](=O)[O-])cc2)c2ccc(N(C)C)cc2)cc1	–	inconclusive: 8.2 µM [inhibitor, partial curve, poor fit]
CCn1cc([N+](=O)[O-])c(C(=O)NCc2ccc3c(c2)OCO3)n1	inactive: 2.74%	–
Cc1ccc(NC(=O)c2cnccn2)cc1S(=O)(=O)N1CCCCCC1	–	inconclusive: 18.3 µM [inhibitor, single point]
COc1ccc(-c2noc(CNC(=O)CCCN3C(=O)[C@H]4CC=CC[C@H]4C3=O)n2)cc1	–	inconclusive: 6.51 µM [activator, partial curve, poor fit]
CC(=O)N1CCN(S(=O)(=O)c2ccc3c(c2)OCCO3)CC1	–	inconclusive: 10 µM [activator, partial curve]
O=C(NCc1ccc(F)cc1)C(c1ccccc1)N(C(=O)c1csnn1)c1ccccc1 (stereo not drawn)	–	inconclusive: 25.9 µM [inhibitor, single point]

Structure (SMILES)	activity change, negative = inhibition	Potency
Cc1ccccc1NCC(=O)N/N=C/c1ccc([N+](=O)[O-])cc1	inactive: 1.03%	–
CC(=O)c1ccc2noc(-c3ccc(Cl)cc3)c2c1	inactive: -2.54%	–
Cc1ccc(NC(C)C(=O)N/N=C/c2ccc([N+](=O)[O-])s2)cc1 (stereo not drawn)	–	inconclusive: 20.6 µM [inhibitor, partial curve]
C=C(C)CSc1cc(C)nc2c(-c3ccccc3)c(C)nn12	–	inconclusive: 32.6 µM [inhibitor, partial curve, poor fit]
CCOc1cc2nc(-c3ccc(OC)c(OC)c3)nc(NCCCN3CCOCC3)c2cc1OC	–	inconclusive: 9.2 µM [inhibitor, partial curve, poor fit]
COc1ccc(/C=C(\NC(=O)c2ccc(OC)c(OC)c2)C(=O)NCCc2c[nH]c3ccccc23)cc1	–	inconclusive: 18.4 µM [inhibitor, partial curve]
O=c1c2c(ncn2C2CCCC2)n(Cc2ccccc2)c(=O)n1CCOc1ccccc1	–	inconclusive: 29.1 µM [inhibitor, single point]
CCOc1ncccc1C(=O)Nc1ccc(S(=O)(=O)N2CCCC2)cc1	inactive: -5.75%	–
C/C(=C\C(=O)c1ccc(Br)cc1)NNC(=O)c1ccc(O)cc1	–	inconclusive: 11.2 µM [inhibitor, partial curve, poor fit]
CCOc1ccc(-c2cc(C(=O)O)c3ccccc3n2)cc1	–	inconclusive: 2.59 µM [activator, partial curve]
CCOC(=O)C1CCN(S(=O)(=O)c2ccccc2)CC1	inactive: 14%	–
Cc1ccccc1N=Nc1c(C)[nH]n(C(N)=S)c1=O	–	inconclusive: 29.1 µM [activator, partial curve, poor fit]
O=C(Nc1ccc(C(=O)Nc2ccccc2Cl)cc1)c1cccnc1	–	inconclusive: 20.6 µM [activator, single point]
O=C(Nc1cccc(Cl)c1)N1CCN(C2c3ccccc3-c3ccccc32)CC1	–	inconclusive: 18.3 µM [inhibitor, single point]
CC(C)CC(=O)N(Cc1ccc(F)cc1)C1CCS(=O)(=O)C1 (stereo not drawn)	inactive: 8.2%	–
O=C(COc1ccc(CO)cc1Cl)Nc1ccc(F)cc1	–	inconclusive: 0.517 µM [activator, full curve]
O=C(/C=C/c1ccc([N+](=O)[O-])cc1)NCC1CCCO1 (stereo not drawn)	–	inconclusive: 18.4 µM [activator, partial curve, poor fit]
CC(=O)c1cccc(N=Nc2c(-c3ccccc3)[nH]n(-c3ccccc3)c2=O)c1	–	active: 8.2 µM
O=C(O)COc1ccc(C(NC(=O)c2c(F)cccc2F)NC(=O)c2c(F)cccc2F)cc1	–	inconclusive: 0.116 µM [inhibitor, full curve, poor fit]
O=C(O)c1ccc(-c2nc3ccccc3s2)o1	–	inconclusive: 3.26 µM [activator, single point]
CNC(=S)Nc1ccc(C23CC4CC(CC(C4)C2)C3)cc1	inactive: 5.21%	–
Cc1cc(C(=O)OCC(=O)N(C)c2c(N)n(Cc3ccccc3)c(=O)[nH]c2=O)c(C)n1-c1ccccc1	inactive: -0.758%	–
CC1N(C)c2cc(NC(=O)c3ccco3)ccc2C1(C)C (stereo not drawn)	–	inconclusive: 2.06 µM [activator, full curve]

Complete entries as entered above:
O=c1c2c(ncn2C2CCCC2)n(Cc2ccccc2)c(=O)n1CCOc1ccccc1 is listed as Potency: inconclusive: 29.1 µM [inhibitor, single point]
O=C(COc1ccc(CO)cc1Cl)Nc1ccc(F)cc1 is listed as Potency: inconclusive: 0.517 µM [activator, full curve]
CC(C)CC(=O)N(Cc1ccc(F)cc1)C1CCS(=O)(=O)C1 (stereo not drawn) is listed as activity change, negative = inhibition: inactive: 8.2%
O=C(O)c1ccc(-c2nc3ccccc3s2)o1 is listed as Potency: inconclusive: 3.26 µM [activator, single point]

(cont.)

Structure (SMILES)	activity change, negative = inhibition	Potency
COc1ccc(Cn2c(C3CC3)nc3ccc(NC(=O)c4ccco4)cc3c2=O)cc1	–	inconclusive: 32.6 µM [inhibitor, single point]
COc1ccc(S(=O)(=O)N2CCOCC2)cc1NC(=O)CCNC(=O)c1ccc([N+](=O)[O-])cc1	–	inconclusive: 16.4 µM [inhibitor, single point]
Cc1nc(-c2ccccc2)sc1C(=O)O	–	inconclusive: 29.1 µM [activator, single point]
CCOc1ccccc1C1CC(=O)Nc2cc3c(cc21)OCO3 (stereo not drawn)	–	inconclusive: 5.8 µM [inhibitor, full curve]
CCOc1ccc(NC(=S)N(Cc2ccc(N(C)C)cc2)Cc2ccco2)cc1	–	inconclusive: 29.1 µM [inhibitor, single point]
O=C1C=CCCC1	inactive: 4.71%	–
S=C(NCCc1ccccn1)Nc1cccc(Cl)c1	inactive: 9.12%	–
COc1ccc(-c2nnn(CC(=O)N3CCN(c4ccccc4OC)CC3)n2)cc1	–	active: 23.1 µM
Cc1cc(C)n(-c2ccc(C(=O)NCc3cccs3)cc2)n1	inactive: 7.15%	–
Cc1ccc(C(=O)Nc2ccc(N3CCN(C(=O)c4cccs4)CC3)cc2)c(Cl)c1	–	inconclusive: 25.9 µM [inhibitor, single point]
CCCn1cnc2cc(NCc3ccc(Br)cc3)ccc21	–	inconclusive: 16.4 µM [activator, partial curve]
O=C(NC1CCCCCC1)C1CCN(S(=O)(=O)c2c(Cl)cccc2Cl)CC1	–	inconclusive: 20.6 µM [inhibitor, partial curve, poor fit]
NC(=O)c1ccccc1NC(=O)CCCc1ccccc1	–	inconclusive: 11.2 µM [activator, partial curve, poor fit]
Cc1cc2c(cc(C(=O)NCCCN3CCOCC3)n2Cc2ccc(Cl)cc2)o1	–	inconclusive: 18.4 µM [inhibitor, single point]
CCCOc1ccc(Oc2ccc(S(=O)(=O)N3CCN(C)CC3)cn2)cc1	–	inconclusive: 9.2 µM [inhibitor, single point]
O=C(N/N=C\c1ccco1)c1cncc(Br)c1	inactive: -0.942%	–
O=C1C=C(c2cccs2)C[C@H](c2ccccc2)[C@H]1n1nnc([N+](=O)[O-])n1	inactive: -29.7%	–
O=C(Nc1ccc2c(c1)OCO2)c1ccncc1	–	inconclusive: 29.1 µM [activator, single point]
OCC1CCCN(c2ncnc3scc(-c4ccccc4)c23)C1 (stereo not drawn)	–	inconclusive: 29.1 µM [inhibitor, single point]
OC(c1cc(-c2ccc(Cl)cc2)nc2ccccc12)C1CCCCN1 (stereo not drawn)	–	inconclusive: 29.1 µM [inhibitor, single point]
CCN(CC)c1ccc(N=Nc2nn(C)c(C)c2[N+](=O)[O-])cc1	–	inconclusive: 2.31 µM [activator, full curve]
COc1ccc(-c2nnn(Cc3nc(N)nc(N4CCOCC4)n3)n2)cc1OC	–	inconclusive: 20.6 µM [activator, single point]
